# Assay results taken from PubChem BioAssay AID504467 (National Center for Advancing Translational Sciences (NCATS), 2011).
# Screen size: about 330,000 compounds; about 7,700 (2.3%) were called active. Inconclusive results, whose numbers are uncertain, are shown with a selection of clear calls. Calls follow the shape of the dose curve; as a rule, active = well fitted inhibition curve with a large enough effect; inconclusive = small, poorly fitted or top-dose-only effect, or effect the other way; inactive = flat fitted curve, though single readings scatter. Where the call is inconclusive, the potency comes from a doubtful curve fit.
# Experiment: qHTS screen for small molecules that inhibit ELG1-dependent DNA repair in human embryonic kidney (HEK293T) cells expressing luciferase-tagged ELG1; also: nearly all actives have a fitted effect of over 55% in size
# Details: HEK293T ELG1-luciferase reporter, luminescence, 16 h, DNA damage induced by 5-fluorouridine; series mostly up to 46.1 µM
# Method in brief: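 In this reporter screen, reduction of luminescence relative to DMSO vehicle indicated activity. Compounds and 5-fluorouridine were added together to 2,000 cells per well, incubated for 16 hr at 37 °C, then developed with ONE-Glo.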
# Potency is read from the fitted curve at half-maximal effect.
row,Structure (SMILES),Potency
1,CCOC(=O)C1CCN(C(=O)c2cc3cc4ccc(OC)cc4nc3o2)CC1,"inconclusive: 2.31 µM [activator, partial curve]"
2,CC(C)N(C(=O)CSc1nnc(CSc2ncccn2)n1C)C(C)C,inactive
3,O=C(NCc1ccccn1)c1c(O)c2cccc3c2n(c1=O)CC3,"inconclusive: 20.6 µM [activator, single point]"
4,O=C(NC1CCCCC1)C(c1ccncc1)N(Cc1ccc(F)cc1)C(=O)c1ccccn1 (stereo not drawn),inactive
5,CC1C/C(=N/N2C(=O)CSC2=S)CC(C)(C)C1 (stereo not drawn),inactive
6,COc1ccc(NC(=S)NNC(=S)Nc2cccc(C(F)(F)F)c2)cc1,inactive
7,Cn1ncc2c(Nc3cccc4ccccc34)ncnc21,"inconclusive: 32.6 µM [activator, partial curve, poor fit]"
8,COc1ccc(CNc2nc3ccccc3n2C(C)C)c(O)c1,inactive
9,CCS(=O)(=O)N1Cc2ccccc2CC1C(=O)Nc1nc2ccc(F)cc2s1 (stereo not drawn),"inconclusive: 4.61 µM [activator, partial curve]"
10,CCOC(=O)c1ccc(Nc2nc(N3CCOCC3)nc(N3CCOCC3)n2)cc1,"inconclusive: 3.26 µM [inhibitor, full curve]"
11,O=C(CC12CC3CC(CC(C3)C1)C2)NC(=S)NCc1ccco1,"inconclusive: 29.1 µM [inhibitor, single point]"
12,CCOc1ccccc1C(=O)N1CCN=C1SCc1cccnc1,"inconclusive: 16.4 µM [inhibitor, single point]"
13,COc1cccc(/C=C2\SC(N3CCCC(C)C3)=NC2=O)c1OC (stereo not drawn),"inconclusive: 23.1 µM [activator, single point]"
14,Cc1cccc(NC(=S)N(Cc2ccc(Cl)cc2)Cc2ccc(C(=O)O)cc2)c1,"inconclusive: 6.51 µM [activator, partial curve, poor fit]"
15,O=C(CSCc1cccc(F)c1)NCc1ccccc1,"inconclusive: 23.1 µM [activator, partial curve]"
16,COC(=O)c1c(N2C(=O)[C@H]3[C@@H](C2=O)[C@]2(C(=O)Nc4c(C)cccc42)N2CCC[C@@H]32)sc(C)c1C,active: 16.4 µM
17,Cc1ccc(-c2nc3ccccc3s2)cc1NC(=S)NC(=O)c1ccccc1,"inconclusive: 2.82 µM [activator, full curve, poor fit]"
18,CCOC(=O)N/N=C(C)/C=C/c1ccccc1,"inconclusive: 20.6 µM [activator, single point]"
19,C=CCN(c1ccccc1C(=O)O)S(=O)(=O)c1ccc(C)cc1,"inconclusive: 29.1 µM [inhibitor, partial curve, poor fit]"
20,COc1ccccc1CN1C[C@@H]2C[C@@H](C3=Cc4cccc(OC)c4OC3)N3CCC[C@@]23C1=O,"inconclusive: 32.6 µM [inhibitor, single point]"
21,Cc1ccc(CCN2CC(C(=O)NC(C)C)CC2=O)cc1 (stereo not drawn),inactive
22,CCOc1[nH]n(-c2ccccc2)c(=O)c1C=Nc1ccc(OC)cc1,"inconclusive: 32.6 µM [activator, partial curve, poor fit]"

row,Structure (SMILES),Potency
1,Cc1nccn1Cc1ccccc1,inactive
2,COC(=O)c1ccc(-c2n[nH]c(=O)c3ccccc23)cc1,"inconclusive: 2.91 µM [inhibitor, full curve]"
3,O=C(NCCc1cccc(Cl)c1)c1cccnc1,"inconclusive: 14.6 µM [activator, partial curve]"
4,CCOC(=O)C1(Cc2cccc(Cl)c2)CCCN(C(=O)CCN2CCCC2=O)C1 (stereo not drawn),"inconclusive: 16.4 µM [activator, partial curve, poor fit]"
5,O=C(Nc1cccc(Cl)c1)c1ccc(F)c(S(=O)(=O)NCc2cccs2)c1,"inconclusive: 13 µM [inhibitor, partial curve, poor fit]"
6,O=c1c(=NNc2ccccc2Cl)c(=O)c2ccccc12,"inconclusive: 1.16 µM [activator, full curve]"
7,O=C(CN1CCN(c2ccc(O)cc2)CC1)Nc1ccc2c(c1)OCCO2,"inconclusive: 20.6 µM [inhibitor, single point]"
8,Cc1ccccc1C(=O)Nc1ccc(N(C)C)c2ccccc12,"inconclusive: 8.91 µM [activator, partial curve, poor fit]"
9,Cc1nc2scc(C)n2c(=O)c1S(=O)(=O)Nc1ccc(N2CCOCC2)c(Cl)c1,inactive
10,Cc1ccc(NC(=O)CN(C)S(=O)(=O)c2cccs2)cc1F,"inconclusive: 18.4 µM [activator, partial curve]"
11,Cc1ccc(CNc2nc(N)c([N+](=O)[O-])c(NCCO)n2)cc1,"inconclusive: 11.6 µM [inhibitor, partial curve]"
12,CCN(CC(=O)Nc1ccc(NC(C)=O)cc1)C(=O)c1cc2c(s1)CCCC2,"inconclusive: 7.08 µM [activator, partial curve, poor fit]"
13,Cc1c(C(=O)N2CCc3ccccc32)oc2c1C(=O)CC(C)(C)C2,"inconclusive: 9.2 µM [activator, partial curve]"
14,COc1ccc(CCN2C(=O)CC(N3CCOCC3)C2=O)cc1OC (stereo not drawn),inactive
15,O=C(COC(=O)c1ccccc1O)NCC1COc2ccccc2O1 (stereo not drawn),inactive
16,CCn1cc(C(=O)OCc2ccc(F)cc2)c(=O)c2ccc(C)nc21,"inconclusive: 14.6 µM [inhibitor, partial curve, poor fit]"
17,O=C(CCl)Nc1ccccc1Sc1ccc(Cl)cc1,"inconclusive: 29.1 µM [inhibitor, single point]"
18,CCCCn1c(SCC(=O)Nc2cc(C(F)(F)F)cc(C(F)(F)F)c2)nnc1C(CC)N(C)C (stereo not drawn),inactive
19,COc1ccc(CCNC(=O)C(C)n2nc(C)c3c(C)n(-c4ccc(C)cc4)nc3c2=O)c(OC)c1 (stereo not drawn),inactive
20,CCOc1ccc(Br)cc1S(=O)(=O)Nc1ccccc1N1CCOCC1,"inconclusive: 16.4 µM [inhibitor, partial curve, poor fit]"
21,CC(C)CN(C(=O)c1ccco1)C1CCS(=O)(=O)C1 (stereo not drawn),"inconclusive: 23.1 µM [activator, partial curve, poor fit]"

# Nothing new here: entries from further up.
row,Structure (SMILES),Potency
15,O=C(COC(=O)c1ccccc1O)NCC1COc2ccccc2O1 (stereo not drawn),inactive
16,CCn1cc(C(=O)OCc2ccc(F)cc2)c(=O)c2ccc(C)nc21,"inconclusive: 14.6 µM [inhibitor, partial curve, poor fit]"
